Test results as given in US20030224470A1, “Method of diagnosing statin myopathy” (priority 2002, published 2003).

Experiment: Urine organic acid analysis for 3-methylglutaconic acid (3MGA)
Type: in vivo, patients
Settings: Patient 4, Atorvastatin 10 mg/d, normal range 0-9 mmol/mol creatinine
Excerpt: The invention is not limited by the method of detection of 3MGA in the urine. Presently, 3MGA is typically detected using gas chromatography mass spectrometry (GCMS) or tandem mass spectrometry techniques. The development of tests for the detection of organic molecules in bodily fluids is well within the ability of those skilled in the art. Any quantitative or qualitative method able to detect 3MGA with the sensitivity required can be used to practice the method of the invention.
As some variance may exist between testing laboratories, exact values indicative of myopathy may vary. All of the values presented herein were obtained at the University of California San Diego clinical testing laboratory. In that laboratory, two standard deviations from the average background level is 9 millimoles/mole creatine. Based on values obtained in that laboratory, values indicative of statin related myopathy are between about 9 and 200 millimoles/mole creatine, typically between about 9 to 100 millimoles/mole creatine, most typically between about 9 and 50 millimoles/mole creatine. […]
Quantitative testing methods. […] Typically 3MGA is detected during a complete urine organic acid analysis which is performed using tandem mass spectrophotometry or gas chromatography mass spectrophotometry. […]

CC(C)c1c(C(=O)Nc2ccccc2)c(-c2ccccc2)c(-c2ccc(F)cc2)n1CC[C@@H](O)C[C@@H](O)CC(=O)O [Atorvastatin]
3-Methylglutaconic acid levels On Statin: 16 mmol/mol
